Laboratory results taken from patent publication CN113354737A.
Results are given in words; binding and its absence hold for the method and conditions named. Some results given as binding are weak or reduced against the parent protein; the word gives no strength.

The chains behind the UniProt entries cited, without tags or fusion partners. Residues count along the entry.
UniProt P51654, residues 25-559: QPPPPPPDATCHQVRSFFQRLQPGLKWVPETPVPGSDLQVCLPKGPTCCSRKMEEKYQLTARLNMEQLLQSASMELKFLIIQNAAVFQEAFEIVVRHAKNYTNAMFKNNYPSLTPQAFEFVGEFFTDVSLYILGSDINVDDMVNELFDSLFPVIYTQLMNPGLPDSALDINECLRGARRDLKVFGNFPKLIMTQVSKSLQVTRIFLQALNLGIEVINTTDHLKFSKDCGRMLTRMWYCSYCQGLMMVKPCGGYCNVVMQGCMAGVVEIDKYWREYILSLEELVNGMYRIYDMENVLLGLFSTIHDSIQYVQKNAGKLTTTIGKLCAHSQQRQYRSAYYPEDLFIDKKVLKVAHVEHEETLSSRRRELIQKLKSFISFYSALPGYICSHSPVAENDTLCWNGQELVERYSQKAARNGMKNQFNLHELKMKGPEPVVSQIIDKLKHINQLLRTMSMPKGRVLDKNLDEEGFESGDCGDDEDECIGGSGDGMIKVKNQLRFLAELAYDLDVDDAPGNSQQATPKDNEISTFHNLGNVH

Target: 重组人GPC3胞外区抗原 (human) (UniProt P51654)
Test: ELISA, coated antigen (Fig. 1A)

binding: binds
B1: 人源GPC3抗体10C7 (antibody, V domains shown)
VH: QVQLVQSGAEVKKPGASVKLSCKASGYTFTDYEMHWVKQTPGKGLKWIGALDPKTGDTAYAQKFQGRATLTADTSTDTAYMELSSLRSEDSAVYYCTRFYSYTYWGQGTLVTVSS
VL: DIVLTQSPLSLTVTPGEPASISCRSSESLVHSNGNTYLSWLQQRPGQPPRLLIYKISNRFSGVPDRFSGSGAGTDFTLKISRVEAEDVGVYYCTQATQFPYTFGQGTKVEIK
